According to patent US20170166649A1 (MAX DELBR CK CENTRUM F R MOLEKULARE MEDIZIN IN DER …, published 2017):
Results are given in words; binding and its absence hold for the method and conditions named. Some results given as binding are weak or reduced against the parent protein; the word gives no strength.

Assays:
[1] = molecular target: extracellular domain of cynomolgous BCMA (cynomolgus); assay: SPR (ProteOn), IgG amine-coupled to a GLH chip, cynoBCMA in the mobile phase; concentrations not printed [continued) B]
[2] = molecular target: extracellular domain of cynomolgous BCMA (cynomolgus); assay: ELISA on plates coated with cynomolgus BCMA (1 ug/ml), % of max
[3] = molecular target: extracellular domain of cynomolgous BCMA (cynomolgus); assay: ELISA (cynomolgous)

Measured: binding

B1: chimeric antibody J22.9-xi (antibody, V domains shown)
VH: QVQLQQSGGGLVQPGGSLKLSCAASGIDFSRYWMSWVRRAPGKGLEWIGEINPDSSTINYAPSLKDKFIISRDNAKNTLYLQMSKVRSEDTALYYCASLYYDYGDAMDYWGQGTSVTVSS
VL: DIVMTQSQRFMTTSVGDRVSVTCKASQSVDSNVAWYQQKPRQSPKALIFSASLRFSGVPARFTGSGSGTDFTLTISNLQSEDLAEYFCQQYNNYPLTFGAGTKLELKR
notes: Full length IgG made in 293-6E cells
binds: [1] | [2] | [3]
